Source: the supplement of paper PMC6331611
± gives the standard deviation of the averaged measurements. Over roughly 1,600 compounds, “normalized intracellular growth (luminescence, IQM-normalized) in RAW264.7 macrophages” has its median near 1; the lowest 2% begin near 0.43. The list shows a part of the results.

Tested on: Salmonella enterica serovar Typhimurium SL1344
Experiment: normalized intracellular growth (luminescence, IQM-normalized) in RAW264.7 macrophages (fraction of plate interquartile mean); higher = more bacterial growth (less inhibition)
Details: 10 µM

Compound	normalized intracellular growth (time point: T3 (3 h))	normalized intracellular growth (time point: Tfinal (~6 h))
[O-][n+]1ccccc1[S-].[O-][n+]1ccccc1[S-].[Zn+2]	0.762 ± 0.15	1.47 ± 0.12
CN1[C@@H]2C[C@@H](OC(=O)[C@H](CO)c3ccccc3)C[C@H]1[C@@H]1O[C@@H]12	0.9722 ± 0.0094	1.12 ± 0.083
O=[N+]([O-])C(Br)(CO)CO	0.988 ± 0.023	1.03 ± 0.11
NCC(CC(=O)O)c1ccc(Cl)cc1 (centres undefined)	0.993 ± 0.034	0.908 ± 0.038
CCOC(=O)CC(SP(=S)(OC)OC)C(=O)OCC (centres undefined)	0.9134 ± 0.0039	0.929 ± 0.32
CC(N)Cc1ccc(O)cc1 (centres undefined)	0.95 ± 0.082	0.903 ± 0.11
NCc1cccnc1	1 ± 0.03	0.876 ± 0.071
O=C(O)CCCO	0.993 ± 0.076	0.955 ± 0.026
C=C/C=C\CC1=C(C)[C@@H](OC(=O)[C@@H]2[C@@H](/C=C(\C)C(=O)OC)C2(C)C)CC1=O.C=C/C=C\CC1=C(C)[C@@H](OC(=O)[C@@H]2[C@@H](C=C(C)C)C2(C)C)CC1=O	1.01 ± 0.014	0.938 ± 0.13
CC(NC(C)(C)C)C(=O)c1cccc(Cl)c1 (centres undefined)	1.02 ± 0.026	0.94 ± 0.061
CN[C@@H]1[C@@H](O)[C@@H](O[C@@H]2[C@@H](O)[C@H](O[C@H]3O[C@H](CN)CC[C@H]3N)[C@@H](N)C[C@H]2N)OC[C@]1(C)O.CN[C@@H]1[C@@H](O)[C@@H](O[C@@H]2[C@@H](O)[C@H](O[C@H]3O[C@H]([C@@H](C)N)CC[C@H]3N)[C@@H](N)C[C@H]2N)OC[C@]1(C)O.CN[C@@H]1[C@@H](O)[C@@H](O[C@@H]2[C@@H](O)[C@H](O[C@H]3O[C@H]([C@@H](C)NC)CC[C@H]3N)[C@@H](N)C[C@H]2N)OC[C@]1(C)O	0.936 ± 0.049	0.895 ± 0.049
CN1CCN(C(=O)O[C@H]2c3nccnc3C(=O)N2c2ccc(Cl)cn2)CC1	1.05 ± 0.039	0.937 ± 0.18
O=C1CC[C@@]2(O)[C@H]3Cc4ccc(O)c5c4[C@@]2(CCN3CC2CC2)[C@H]1O5	1.04 ± 0.071	1.12 ± 0.11
NC(=O)c1cc([N+](=O)[O-])cc([N+](=O)[O-])c1	1.14 ± 0.014	1.14 ± 0.099
CC(=O)O[C@H]1C[C@@H]2CC[C@@H]3[C@H](CC[C@@]4(C)[C@H]3C[C@H]([N+]3(C)CCCCC3)[C@@H]4OC(C)=O)[C@@]2(C)C[C@@H]1[N+]1(C)CCCCC1	0.927 ± 0.054	0.928 ± 0.067
NCC(O)c1ccc(O)cc1 (centres undefined)	0.977 ± 0.056	0.872 ± 0.14
C[C@]12CC[C@H]3[C@@H](CCC4=CC(=O)CC[C@@]43C)[C@@H]1CC[C@@H]2O	1.03 ± 0.17	1.23 ± 0.058
c1ccc2c(c1)Nc1ccccc1S2	1.1 ± 0.054	0.889 ± 0.14
Cc1ccc(/N=C/N(C)/C=N/c2ccc(C)cc2C)c(C)c1	1.12 ± 0.025	0.594 ± 0.084
O=c1c2ccccc2[se]n1-c1ccccc1	0.969 ± 0.039	0.813 ± 0.14
S=C=NCc1ccccc1	1.24 ± 0.17	1.22 ± 0.14
COP(=O)(OC)OC=C(Cl)Cl	1 ± 0.065	1.06 ± 0.066
C[C@]12CCC(=O)C=C1C=C[C@@H]1[C@@H]2CC[C@@]2(C)[C@H]1CC[C@@]2(O)CCC(=O)O	1.12 ± 0.092	1.21 ± 0.15
CC[C@@H](C(=O)[C@@H](C)[C@@H](O)[C@H](C)[C@@H]1O[C@@H]([C@@H](CC)C(=O)O)CC[C@@H]1C)[C@H]1O[C@]2(C=C[C@@H](O)[C@]3(CC[C@@](C)([C@H]4CC[C@](O)(CC)[C@H](C)O4)O3)O2)[C@H](C)C[C@@H]1C	1.06 ± 0.083	0.73 ± 0.13
Cc1cccc(C)c1NC(=O)CN1CCCC1=O	1.03 ± 0.03	0.892 ± 0.042
C=CCN1CC[C@]23c4c5ccc(O)c4O[C@H]2C(=O)CC[C@@]3(O)[C@H]1C5	1.052 ± 0.0039	0.549 ± 0.16

Compound	normalized intracellular growth (time point: T3 (3 h))	normalized intracellular growth (time point: Tfinal (~6 h))
O=c1n(Cl)c(=O)n(Cl)c(=O)n1Cl	1.05 ± 0.043	1.08 ± 0.064
COP(=O)(OC)C(O)C(Cl)(Cl)Cl (centres undefined)	1.02 ± 0.033	0.756 ± 0.31
Oc1ccc2c3c1O[C@H]1[C@@H](O)CC[C@@]4(O)[C@@H](C2)N(CC2CCC2)CC[C@]314	0.994 ± 0.047	0.887 ± 0.27
CC(=O)O[C@H]1CC[C@@]2(C)C(=CC[C@@H]3[C@@H]2CC[C@]2(C)C(=O)CC[C@@H]32)C1	0.984 ± 0.015	1.12 ± 0.11
CN1C[C@H](CNC(=O)OCc2ccccc2)C[C@@H]2c3cccc4c3c(cn4C)C[C@H]21	0.458 ± 0.2	0.839 ± 0.23
CC(C)c1cccc(C(C)C)c1O	1.04 ± 0.047	1 ± 0.14
CC[N+]1(C)CCCC(OC(=O)C(O)(c2ccccc2)c2ccccc2)C1 (centres undefined)	0.855 ± 0.07	0.822 ± 0.13
c1ccc2c(c1)OCC(C1=NCCN1)O2 (centres undefined)	0.997 ± 0.074	0.914 ± 0.12
CC[C@@H](CO)NC(=O)[C@@H]1C=C2c3cccc4c3c(cn4C)C[C@H]2N(C)C1	0.9989 ± 0.007	0.88 ± 0.16
COc1cc2c(c(OC)c1OC)-c1ccc(OC)c(=O)cc1[C@@H](NC(C)=O)CC2	0.868 ± 0.062	0.929 ± 0.046
C[C@]12CC[C@H](O)CC1=CC[C@@H]1[C@@H]2CC[C@]2(C)C(=O)CC[C@@H]12	1.08 ± 0.025	1.09 ± 0.13
CC1C=CC=CCCC=CC=CC=CC=CC(OC2OC(C)C(O)C(N)C2O)CC2OC(O)(CC(O)C(O)CCC(O)CC(O)CC(O)CC(=O)OC(C)C(C)C1O)CC(O)C2C(=O)O (centres undefined)	0.984 ± 0.055	0.908 ± 0.053
Cc1cc(C(C#N)c2ccc(Cl)cc2)c(Cl)cc1NC(=O)c1cc(I)cc(I)c1O (centres undefined)	1.03 ± 0.078	1.08 ± 0.096
COc1ccc2c(c1OC)C(=O)O[C@@H]2[C@H]1c2cc3c(cc2CCN1C)OCO3	1.01 ± 0.029	1.06 ± 0.033
O=C(O)c1nn(Cc2ccc(Cl)cc2Cl)c2ccccc12	0.985 ± 0.1	0.912 ± 0.18
C[C@@H]1C[C@@H]([C@H](O)CC2CC(=O)NC(=O)C2)C(=O)[C@@H](C)C1	0.986 ± 0.025	1.34 ± 0.13
CCC1(C2=NCCN2)Cc2ccccc2O1 (centres undefined)	1.01 ± 0.033	0.868 ± 0.28
CC[C@@H](CO)NC(=O)[C@@H]1C=C2c3cccc4[nH]cc(c34)C[C@H]2N(C)C1	1.14 ± 0.061	1.08 ± 0.046
CCCCOC(=O)c1ccccc1C(=O)OCCCC	1.029 ± 0.01	1.11 ± 0.15
CC(O)(CS(=O)(=O)c1ccc(F)cc1)C(=O)Nc1ccc(C#N)c(C(F)(F)F)c1 (centres undefined)	1.16 ± 0.098	0.987 ± 0.071
CCOC(=O)c1cncn1[C@H](C)c1ccccc1	1 ± 0.064	1.14 ± 0.16
O=C(CCCN1CCC2(CC1)C(=O)NCN2c1ccccc1)c1ccc(F)cc1	0.773 ± 0.12	1 ± 0.12
O=[N+]([O-])O[C@H]1CO[C@H]2[C@@H]1OC[C@H]2O[N+](=O)[O-]	1.003 ± 0.0081	0.83 ± 0.048
CC[C@@H](C)C(=O)O[C@H]1[C@H](O)[C@H]2[C@@H](CN3C[C@@H](C)CC[C@H]3[C@@]2(C)O)[C@@H]2C[C@]34O[C@]5(O)[C@@H](OC(=O)[C@@](C)(O)CC)CC[C@@]3(C)[C@@H]5[C@@H](OC(C)=O)[C@@H](OC(C)=O)[C@H]4[C@@]21O	0.971 ± 0.073	1.07 ± 0.061
O=c1cccc2n1C[C@@H]1CNC[C@H]2C1	1.09 ± 0.055	0.975 ± 0.091
NCC1(CC(=O)O)CCCCC1	1.05 ± 0.082	1.19 ± 0.17

Part of the list above in order of heavy-atom count, descending.
Compound	normalized intracellular growth (time point: T3 (3 h))	normalized intracellular growth (time point: Tfinal (~6 h))
CC[N+]1(C)CCCC(OC(=O)C(O)(c2ccccc2)c2ccccc2)C1 (centres undefined)	0.855 ± 0.07	0.822 ± 0.13
CCC1(C2=NCCN2)Cc2ccccc2O1 (centres undefined)	1.01 ± 0.033	0.868 ± 0.28
CC(C)c1cccc(C(C)C)c1O	1.04 ± 0.047	1 ± 0.14
